In US20090111753A1, “Nogo-A Polypeptide Fragments, Variant Nogo Receptor-1 Polypeptides, and Uses Thereof” (Yale University, priority 2004, published 2009):
Positions count from the first letter of the chain named.

B1: WT: wild type human NgR1 expressed in COS-7 cells (protein, UniProt Q9BZR6 27-447, looked up)
Reticulon-4 receptor: CPGACVCYNEPKVTTSCPQQGLQAVPVGIPAASQRIFLHGNRISHVPAASFRACRNLTILWLHSNVLARIDAAAFTGLALLEQLDLSDNAQLRSVDPATFHGLGRLHTLHLDRCGLQELGPGLFRGLAALQYLYLQDNALQALPDDTFRDLGNLTHLFLHGNRISSVPERAFRGLHSLDRLLLHQNRVAHVHPHAFRDLGRLMTLYLFANNLSALPTEALAPLRALQYLRLNDNPWVCDCRARPLWAWLQKFRGSSSEVPCSLPQRLAGRDLKRLAANDLQGCAVATGPYHPIWTGRATDEEPLGLPKCCQPDAADKASVLEPGRPASAGNALKGRVPPGDSPPGNGSGPRHINDSPFGTLPGSAEPPLTAVRPEGSEPPGFPTSGPRRRPGCSRKNRTRSHCRLGQAGSGGGGTGDSEGS
B2: 108, 131: human NgR1 mutant, listed residues mutated to alanine (protein)
chain: CPGACVCYNEPKVTTSCPQQGLQAVPVGIPAASQRIFLHGNRISHVPAASFRACRNLTILWLHSNVLARIDAAAFTGLALLAQLDLSDNAQLRSVDPATFHGLGALHTLHLDRCGLQELGPGLFRGLAALQYLYLQDNALQALPDDTFRDLGNLTHLFLHGNRISSVPERAFRGLHSLDRLLLHQNRVAHVHPHAFRDLGRLMTLYLFANNLSALPTEALAPLRALQYLRLNDNPWVCDCRARPLWAWLQKFRGSSSEVPCSLPQRLAGRDLKRLAANDLQGCAVATGPYHPIWTGRATDEEPLGLPKCCQPDAADKASVLEPGRPASAGNALKGRVPPGDSPPGNGSGPRHINDSPFGTLPGSAEPPLTAVRPEGSEPPGFPTSGPRRRPGCSRKNRTRSHCRLGQAGSGGGGTGDSEGSGALPSLTCSLTPLGLALVLWTVLGPC
B3: 95, 97, 122: human NgR1 mutant, listed residues mutated to alanine (protein)
chain: B2 chain with R69A, D71A, A82E, D96A, A105R
B4: 89, 90: human NgR1 mutant, listed residues mutated to alanine (protein)
chain: B2 chain with H63A, S64A, A82E, A105R
B5: 117, 119, 120: human NgR1 mutant, listed residues mutated to alanine (protein)
chain: B2 chain with A82E, Q91A, R93A, S94A, A105R
B6: 63, 65, 87, 89: human NgR1 mutant, listed residues mutated to alanine (protein)
chain: B2 chain with F37A, H39A, W61A, H63A, A82E, A105R
B7: human NgR1 alanine mutant 189, 191, 211, 213, 237, 256, 259, 284 (receptor)
chain: B2 chain with A82E, A105R, R163A, S165A, Q185A, R187A, N211A, R230A, D233A, E258A
B8: 114, 117, 139: human NgR1 mutant, listed residues mutated to alanine (protein)
chain: B2 chain with A82E, D88A, Q91A, A105R, R113A
B9: 87, 89: human NgR1 mutant, listed residues mutated to alanine (protein)
chain: B2 chain with W61A, H63A, A82E, A105R
B10: 237, 256, 284: human NgR1 mutant, listed residues mutated to alanine (protein)
chain: B2 chain with A82E, A105R, N211A, R230A, E258A
B11: 61, 108, 131: human NgR1 mutant, listed residues mutated to alanine (protein)
chain: B2 chain with R35A
B12: 78, 81: human NgR1 mutant, listed residues mutated to alanine (protein)
chain: B2 chain with R52A, R55A, A82E, A105R
B13: 220, 223, 224: human NgR1 mutant, listed residues mutated to alanine (protein)
chain: B2 chain with A82E, A105R, H194A, R197A, D198A
B14: 36, 38, 61: human NgR1 mutant, listed residues mutated to alanine (protein)
chain: B2 chain with E10A, K12A, R35A, A82E, A105R
B15: 216, 218, 220: human NgR1 mutant, listed residues mutated to alanine (protein)
chain: B2 chain with A82E, A105R, H190A, H192A, H194A
B16: 256, 259: human NgR1 mutant, listed residues mutated to alanine (protein)
chain: B2 chain with A82E, A105R, R230A, D233A
B17: 237, 256, 259: human NgR1 mutant, listed residues mutated to alanine (protein)
chain: B2 chain with A82E, A105R, N211A, R230A, D233A
B18: human NgR1 alanine mutant 211, 213, 237, 256, 259, 284 (receptor)
chain: B2 chain with A82E, A105R, Q185A, R187A, N211A, R230A, D233A, E258A
B19: 95, 97: human NgR1 mutant, listed residues mutated to alanine (protein)
chain: B2 chain with R69A, D71A, A82E, A105R
B20: 256, 259, 284: human NgR1 mutant, listed residues mutated to alanine (protein)
chain: B2 chain with A82E, A105R, R230A, D233A, E258A

These molecules were tested on anti-NgR (assay: anti-NgR staining of NgR mutants). Settings: COS-7 cells expressing NgR mutants.
Assay type: binding
Design: key: ++: WT level; +: weaker than wild type; trace binding; −: no binding

anti-NgR, ++:
B1
B2
B3
B4
B5
B6
B7
B8
B9
B10
B11
B12
B13
B14
B15
B16
B17
B18
B19
B20
